From patent US20090069179A1 (priority 2006, published 2009)
Some entries share one result that the patent states for a list of compounds.

Test system: Alternaria solani
Assay: Activity against early blight of tomatoes caused by Alternaria solani
Assay type: in vivo
Conditions: tomato plants sprayed with 250 ppm active compound, inoculated next day, assessed after 5 days; untreated plants 90% infected

In the case of `COc1ccc(-c2ccc(S(=O)(=O)NCc3ccccn3)nc2)cc1` [Example 2, 5-(4-methoxyphenyl)-pyridine-2-sulfonic acid picolyl amide], the “infection (% diseased leaf area)” value is reported as “not more than 20%”.
